{"source": "paper PMC10163288", "binders": {"B1": {"name": "il2ra_site1_1z92_normal_mot_HHH_b2_07217_af2_000000241_0001_1_19_H_._HHH_b1_07228_0001_0000100005_0000001_0 (protein)", "chain": "SSSSDKEEESAEYHRELLEAALKLGSEKALRLLLRDIELFLKRTKDEELERLMEEVEEELSSSSS"}, "B2": {"name": "il2ra_site2_3nfp_sap_18_mot_7f6a3539c8daa08639e4cdbcc6f77908_0001_af2_000000032_0001_16_31_H_._HHH_b1_04314_af2_0001_0000300027_0000001_0_0001 (protein)", "chain": "SSSSDKSEEYLRIALELLEEAIKAGDEEAARSHLEVAKAAAESHNDEEVEERLEELEELLSSSSS"}, "B3": {"name": "il2ra_site1_2b5i_sap_6_mot_HHH_b1_00824_af2_000000079_0001_41_56_H_._HHH_b2_00132_af2_0001_0000100012_0000001_0_0001_af2pred_0001_af2pred_1 (protein)", "chain": "SSSSSEESEELLELLEEAQRLLENGNPEEAREVLKEAYRLAEEAGNRSLLKIIESALRQFSSSSS"}, "B4": {"name": "il2ra_site1_3nfp_sap_6_mot_HHH_b1_03953_af2_000000297_0001_43_57_H_._HHH_b2_01865_0001_0000100005_0000001_0_0001_af2pred_0001_af2pred_swapped (protein)", "chain": "SLERFVENVIKLLRKLDPELARLLEIALELAKEGDPEAREVLKRVLRLLARGNPEQARELLEELE"}, "B5": {"name": "il2ra_site1_1z92_normal_mot_dddd11d5de81826a7497a0a2545a4374_0001_1_000000154_0001_35_49_H_._73748e87acf97c5b21ce774ef908246a_0001_af2_0001_0000300024_0000001_1 … (protein)", "chain": "SNEEKVEELAKKLGIPPEEVEKAIEYLREEEKIPPRNAVIYLLIILRKVEEGDPTAERLLEDLIE"}, "B6": {"name": "il2ra_site2_3nfp_normal_mot_HHH_b1_00660_af2_000000090_0001_40_57_H_._HHH_b2_05851_af2_0001_0001100007_0000001_1_af2pred_0001_af2pred_1_swapped (protein)", "chain": "SSSSDEEEVERLVEELLEEAKKIEDPEERERVLHRAATVAAQAGDHELFVLVLRVLEKLGSSSSS"}, "B7": {"name": "il2ra_site1_2b5i_sap_9_mot_HHH_b2_04131_000000150_0001_1_16_H_._HHH_b2_05123_0001_0000300010_0000001_0_0001_af2pred_dldesign_0_af2pred (protein)", "chain": "SSSSSSSSDWRALLREADAAFKAGDIARLEELLARARAAGWDKVAAAIEKAIEDLKKSSSSSSSS"}, "B8": {"name": "il2ra_site1_1z92_normal_mot_HHH_b2_08380_af2_000000158_0001_44_57_H_._HHH_b1_04199_af2_0001_0000100003_0000001_0 (protein)", "chain": "SSSSSDEAQERIAELFHEASRVDREEAKELLEEAEELAEENNDERLLKDVRQALEFFELSSSSSS"}, "B9": {"name": "il2ra_site1_2b5i_sap_11_mot_HHH_b2_06044_000000134_0001_1_20_H_._HHH_b2_00948_af2_0001_0000100015_0000001_0_0001_af2pred_dldesign_0_af2pred (protein)", "chain": "SSSSDPEDEIYDLFNKALELYKAGKREEAKKLLEEALKLAEAANDAKAVAELKYLLERLKSSSSS"}, "B10": {"name": "il2ra_site1_2b5i_normal_mot_HHH_b2_04373_af2_000000166_0001_1_14_H_._HHH_b1_03244_0001_0000100001_0000001_1_af2pred_dldesign_0_af2pred (protein)", "chain": "SSSSDPEAEREALLKRVDELLEKLKSPKKKKVLEDAKKRLEEENDPNAFKFLKDFVERAKSSSSS"}, "B11": {"name": "il2ra_site2_3nfp_sap_29_mot_0a42daeb3aece44cdc522fd0f5bebdbb_0001_af2_000000199_0001_52_65_H_._9d722f4281fe2ab0f1894ca7efdbd281_0001_1_0001_0000400006_0000001_0 … (protein)", "chain": "SSSSDREEAEELLEQLERALREGDEELFEELRREVARLVLQIGDEELAHLLDELAILALELSSSS"}, "B12": {"name": "il2ra_site1_1z92_normal_mot_0a69b5c9b02373fb877a90f2b4b0d8e1_0001_1_af2_000000257_0001_17_32_H_._25b8f65eea30506755b2c3fc02a1d269_0001_0001_0000100005_0000001_0 … (protein)", "chain": "SALQRDVERSLEHGIPPRAIARVLIKALKREGDVEEAIEELEELAKKLNDPALEEVAELLRELIK"}, "B13": {"name": "il2ra_site1_1z92_sap_18_mot_6e12af4a48b4634929ba45889b8be782_0001_af2_000000007_0001_36_50_H_._HHH_b2_03999_0001_0000300019_0000001_0_0001 (protein)", "chain": "SSSNSEEMLRMLIRQIEMALRRGNPEAVRWHLELLELLAKNAEDPEAEKEVERLEELLEELSSSS"}, "B14": {"name": "il2ra_site1_2b5i_normal_mot_HHH_b1_06258_af2_000000112_0001_42_56_H_._HHH_b2_04681_0001_0000100003_0000001_0 (protein)", "chain": "SSSSDEEEERVDELFLEASRLWKEGDPEEAERVLEEAARLAKEAGDERALRQVEFMLERLRSSSS"}, "B15": {"name": "il2ra_site2_2erj_normal_mot_HHH_b1_07584_000000201_0001_42_55_H_._HHH_b1_03002_af2_0001_0000200013_0000001_1 (protein)", "chain": "SSSSSEEQEELQELIIKLSELAEQGNPEEAEKVLEEAKRLAKELNDETTLRYLELIERHLSSSSS"}, "B16": {"name": "il2ra_site2_3nfp_normal_mot_HHH_b1_00660_af2_000000199_0001_40_57_H_._HHH_b1_07932_0001_0000200014_0000001_1 (protein)", "chain": "SSSSDKEEIEKLLEELEEALREGDEELFRRIARRVSNLIFELGDHELFAILLELLTEFEELSSSS"}, "B17": {"name": "il2ra_site1_3nfp_sap_6_mot_HHH_b2_07013_af2_000000042_0001_20_36_H_._HHH_b2_00665_0001_0000600012_0000001_0_0001 (protein)", "chain": "SSSSTFIEEMTREAEEIAEELGNPELAERLRELLERAQEEGDWRYARELIKLIAKVQHAGSSSSS"}, "B18": {"name": "il2ra_site1_1z92_normal_mot_678a1b28e3afbd0e6d42a78f97d9d1d3_0001_000000285_0001_16_30_H_._35e8c6ce0f15a03652163f0e02ca9f08_0001_0001_0000200022_0000001_0_af2pr … (protein)", "chain": "SEEDLEEAAEELGVPPEELQALKRAFKVAAESGTPPEQVLRVLARIARRENDPELLLVVELVLRK"}, "B19": {"name": "il2ra_site1_2b5i_normal_mot_f5ff40796168375b462bec8614a1db4a_0001_1_000000138_0001_53_65_H_._HHH_b1_08246_af2_0001_0000700010_0000001_0_af2pred_dldesign_0_af2pr … (protein)", "chain": "SSSSSGLREKVLELLEEAEKLKEEGKLEEAKKLLLLARRLARKGKDEELIAEIEKRLKELSSSSS"}, "B20": {"name": "il2ra_site1_1z92_normal_mot_54e474eed2d0515e81978198f0f96ec2_0001_000000202_0001_15_30_H_._HHH_b2_05542_af2_0001_0000400025_0000001_0_af2pred_0001_af2pred_1 (protein)", "chain": "SSSSSSDEEIEEIVRELVEEFNLSEETEKLLQRLAELALKRGISERAIEWALRRLAKRLSSSSSS"}, "B21": {"name": "il2ra_site1_2b5i_sap_7_mot_HHH_b1_01240_af2_000000288_0001_42_55_H_._HHH_b2_06808_0001_0000300022_0000001_0_0001_af2pred_dldesign_0_af2pred (protein)", "chain": "SPELYALADKLFDDDDKEKKRVAVKAHYLLERDPSLEPEVLELLRQLEAGELSPEEVDRRLSRLL"}, "B22": {"name": "il2ra_site1_1z92_sap_15_mot_HHH_b2_04857_af2_000000020_0001_39_57_H_._HHH_b1_04489_af2_0001_0000100006_0000001_0_0001_af2pred_0001_af2pred (protein)", "chain": "SIIEEDLREAVEKNDEELLREFIRLLLEDSGNPELVKKLLRILVRRLGLPPEVLERLQELLEELT"}, "B23": {"name": "il2ra_site2_2erj_normal_mot_HHH_b2_08081_000000268_0001_43_57_H_._HHH_b1_01890_0001_0000700036_0000001_0 (protein)", "chain": "SSSSDAWEIAARLILEAIELFKNGNPEEARRVIEEAEEEIERLGDETALRYLELALRRLEASSSS"}, "B24": {"name": "il2ra_site1_2b5i_sap_20_mot_3191cc6481096e02f17c0295a435efb4_0001_af2_000000240_0001_16_31_H_._8cb69178cb18ca82f70eade9eeca9cee_0001_0001_0000200025_0000001_0_0 … (protein)", "chain": "SSSSVEKLKEAIELFKEADKAKQAGKEEEAKELLEKALELAKAAGAASLARIIESALKDLESSSS"}}, "note": "This is one part of the list."}
{"molecular_target": "il2ra, P01589", "assay": "yeast display titration"}
{"binder": "B1", "apparent Kd": "inactive: no binding seen"}
{"binder": "B2", "apparent Kd": "inactive: no binding seen"}
{"binder": "B3", "apparent Kd": "inactive: no binding seen"}
{"binder": "B4", "apparent Kd": "inactive: no binding seen"}
{"binder": "B5", "apparent Kd": "inactive: no binding seen"}
{"binder": "B6", "apparent Kd": "inactive: no binding seen"}
{"binder": "B7", "apparent Kd": "inactive: no binding seen"}
{"binder": "B8", "apparent Kd": "inactive: no binding seen"}
{"binder": "B9", "apparent Kd": "inactive: no binding seen"}
{"binder": "B10", "apparent Kd": "inactive: no binding seen"}
{"binder": "B11", "apparent Kd": "inactive: no binding seen"}
{"binder": "B12", "apparent Kd": "inactive: no binding seen"}
{"binder": "B13", "apparent Kd": "inactive: no binding seen"}
{"binder": "B14", "apparent Kd": "inactive: no binding seen"}
{"binder": "B15", "apparent Kd": "inactive: no binding seen"}
{"binder": "B16", "apparent Kd": "inactive: no binding seen"}
{"binder": "B17", "apparent Kd": "inactive: no binding seen"}
{"binder": "B18", "apparent Kd": "inactive: no binding seen"}
{"binder": "B19", "apparent Kd": "inactive: no binding seen"}
{"binder": "B20", "apparent Kd": "inactive: no binding seen"}
{"binder": "B21", "apparent Kd": "inactive: no binding seen"}
{"binder": "B22", "apparent Kd": "inactive: no binding seen"}
{"binder": "B23", "apparent Kd": "inactive: no binding seen"}
{"binder": "B24", "apparent Kd": "inactive: no binding seen"}
